Results taken from the supplement of paper PMC10849652.
The list shows a part of the results.

Amino acid sequences for entries named in this document (tags omitted). A change or cut given only in a name is not applied to a line headed by its entry.
UniProt O75882: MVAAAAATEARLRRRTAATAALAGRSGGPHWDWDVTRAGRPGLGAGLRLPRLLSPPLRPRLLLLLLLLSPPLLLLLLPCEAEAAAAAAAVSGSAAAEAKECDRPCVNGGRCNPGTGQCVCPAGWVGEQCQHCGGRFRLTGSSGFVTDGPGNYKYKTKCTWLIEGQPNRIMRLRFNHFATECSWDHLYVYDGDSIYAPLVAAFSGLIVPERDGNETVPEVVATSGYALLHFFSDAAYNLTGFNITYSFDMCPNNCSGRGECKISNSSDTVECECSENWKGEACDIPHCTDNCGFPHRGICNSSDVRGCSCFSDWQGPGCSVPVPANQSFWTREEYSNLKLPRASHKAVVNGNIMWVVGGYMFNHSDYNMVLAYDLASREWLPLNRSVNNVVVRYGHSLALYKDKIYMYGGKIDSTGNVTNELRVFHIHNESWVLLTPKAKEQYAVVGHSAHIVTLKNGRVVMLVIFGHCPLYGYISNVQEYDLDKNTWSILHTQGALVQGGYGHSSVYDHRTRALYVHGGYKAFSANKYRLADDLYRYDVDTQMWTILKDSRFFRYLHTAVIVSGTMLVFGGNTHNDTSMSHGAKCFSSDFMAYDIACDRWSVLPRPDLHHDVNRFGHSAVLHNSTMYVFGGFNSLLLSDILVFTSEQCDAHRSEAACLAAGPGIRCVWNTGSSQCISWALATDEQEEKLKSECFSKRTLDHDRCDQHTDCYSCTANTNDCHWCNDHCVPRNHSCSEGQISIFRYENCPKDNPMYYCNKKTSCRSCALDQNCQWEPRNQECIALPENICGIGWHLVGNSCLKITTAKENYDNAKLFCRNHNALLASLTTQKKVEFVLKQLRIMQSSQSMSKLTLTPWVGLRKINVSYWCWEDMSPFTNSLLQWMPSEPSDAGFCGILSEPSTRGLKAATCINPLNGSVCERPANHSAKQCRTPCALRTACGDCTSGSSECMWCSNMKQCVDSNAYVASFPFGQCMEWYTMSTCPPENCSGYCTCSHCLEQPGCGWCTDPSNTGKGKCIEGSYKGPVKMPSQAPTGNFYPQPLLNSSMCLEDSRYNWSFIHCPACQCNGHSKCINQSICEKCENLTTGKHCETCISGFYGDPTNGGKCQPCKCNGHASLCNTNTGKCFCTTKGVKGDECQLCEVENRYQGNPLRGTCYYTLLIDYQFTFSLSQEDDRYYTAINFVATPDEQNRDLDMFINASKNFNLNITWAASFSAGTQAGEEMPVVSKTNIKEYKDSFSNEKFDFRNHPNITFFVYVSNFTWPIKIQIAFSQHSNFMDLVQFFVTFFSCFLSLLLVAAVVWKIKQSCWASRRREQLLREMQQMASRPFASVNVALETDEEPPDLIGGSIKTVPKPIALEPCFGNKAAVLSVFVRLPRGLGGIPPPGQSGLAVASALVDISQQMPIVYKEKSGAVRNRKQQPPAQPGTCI
UniProt Q9NVI7: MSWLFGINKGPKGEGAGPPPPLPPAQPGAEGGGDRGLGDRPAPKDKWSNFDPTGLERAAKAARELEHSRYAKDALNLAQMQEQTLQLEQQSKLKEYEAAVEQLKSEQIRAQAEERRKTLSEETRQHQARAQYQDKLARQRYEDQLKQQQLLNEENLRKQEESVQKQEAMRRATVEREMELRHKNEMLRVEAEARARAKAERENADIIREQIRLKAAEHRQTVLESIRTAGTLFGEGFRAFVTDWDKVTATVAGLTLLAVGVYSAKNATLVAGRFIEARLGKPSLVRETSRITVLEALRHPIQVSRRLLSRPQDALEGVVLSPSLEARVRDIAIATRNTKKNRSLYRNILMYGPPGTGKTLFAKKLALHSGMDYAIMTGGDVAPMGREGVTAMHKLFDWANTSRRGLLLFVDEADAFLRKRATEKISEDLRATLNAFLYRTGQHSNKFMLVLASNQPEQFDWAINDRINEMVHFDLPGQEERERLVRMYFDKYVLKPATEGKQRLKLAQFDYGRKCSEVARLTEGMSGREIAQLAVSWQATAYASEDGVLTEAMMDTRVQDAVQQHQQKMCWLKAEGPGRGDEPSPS
UniProt Q93050, whole entry, looked up: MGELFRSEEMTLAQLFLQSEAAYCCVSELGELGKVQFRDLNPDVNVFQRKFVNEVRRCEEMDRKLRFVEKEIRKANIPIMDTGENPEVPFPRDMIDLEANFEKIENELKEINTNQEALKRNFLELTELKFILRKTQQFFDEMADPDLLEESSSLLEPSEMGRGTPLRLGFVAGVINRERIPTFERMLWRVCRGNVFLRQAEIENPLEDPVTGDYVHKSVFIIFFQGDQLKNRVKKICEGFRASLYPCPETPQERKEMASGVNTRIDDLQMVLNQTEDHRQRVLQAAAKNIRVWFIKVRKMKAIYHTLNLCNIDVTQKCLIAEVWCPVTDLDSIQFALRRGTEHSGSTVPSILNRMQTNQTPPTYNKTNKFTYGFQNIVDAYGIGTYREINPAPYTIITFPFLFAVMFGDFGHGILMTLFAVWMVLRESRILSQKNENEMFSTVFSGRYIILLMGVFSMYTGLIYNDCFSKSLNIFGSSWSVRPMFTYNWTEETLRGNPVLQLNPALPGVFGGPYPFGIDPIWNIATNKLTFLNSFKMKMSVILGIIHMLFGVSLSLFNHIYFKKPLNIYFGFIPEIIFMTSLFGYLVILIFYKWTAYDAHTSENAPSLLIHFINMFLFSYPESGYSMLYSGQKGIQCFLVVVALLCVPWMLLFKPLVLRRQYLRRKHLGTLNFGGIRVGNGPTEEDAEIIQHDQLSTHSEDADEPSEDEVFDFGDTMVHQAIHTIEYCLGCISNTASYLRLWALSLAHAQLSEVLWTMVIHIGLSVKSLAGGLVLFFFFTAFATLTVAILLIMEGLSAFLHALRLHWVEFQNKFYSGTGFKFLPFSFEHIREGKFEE
UniProt O43681: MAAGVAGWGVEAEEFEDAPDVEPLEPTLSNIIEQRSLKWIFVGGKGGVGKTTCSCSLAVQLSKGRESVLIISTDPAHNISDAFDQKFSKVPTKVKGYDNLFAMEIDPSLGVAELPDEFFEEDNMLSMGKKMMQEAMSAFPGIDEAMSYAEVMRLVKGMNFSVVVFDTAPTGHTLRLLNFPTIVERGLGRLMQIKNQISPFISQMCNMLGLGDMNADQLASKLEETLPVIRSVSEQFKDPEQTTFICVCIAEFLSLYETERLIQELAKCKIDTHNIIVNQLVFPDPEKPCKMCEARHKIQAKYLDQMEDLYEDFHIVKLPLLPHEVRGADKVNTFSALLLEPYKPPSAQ
UniProt Q9Y5K8, whole entry, looked up: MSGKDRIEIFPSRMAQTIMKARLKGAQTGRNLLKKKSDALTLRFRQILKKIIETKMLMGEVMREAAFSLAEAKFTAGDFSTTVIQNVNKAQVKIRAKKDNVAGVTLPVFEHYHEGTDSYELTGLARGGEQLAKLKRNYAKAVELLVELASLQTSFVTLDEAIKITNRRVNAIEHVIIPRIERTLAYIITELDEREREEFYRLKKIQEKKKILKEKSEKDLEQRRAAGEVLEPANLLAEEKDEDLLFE
UniProt O75348, whole entry, looked up: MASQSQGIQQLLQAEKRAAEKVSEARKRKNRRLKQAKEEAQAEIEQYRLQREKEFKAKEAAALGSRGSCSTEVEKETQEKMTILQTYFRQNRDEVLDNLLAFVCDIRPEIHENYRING
UniProt O94766: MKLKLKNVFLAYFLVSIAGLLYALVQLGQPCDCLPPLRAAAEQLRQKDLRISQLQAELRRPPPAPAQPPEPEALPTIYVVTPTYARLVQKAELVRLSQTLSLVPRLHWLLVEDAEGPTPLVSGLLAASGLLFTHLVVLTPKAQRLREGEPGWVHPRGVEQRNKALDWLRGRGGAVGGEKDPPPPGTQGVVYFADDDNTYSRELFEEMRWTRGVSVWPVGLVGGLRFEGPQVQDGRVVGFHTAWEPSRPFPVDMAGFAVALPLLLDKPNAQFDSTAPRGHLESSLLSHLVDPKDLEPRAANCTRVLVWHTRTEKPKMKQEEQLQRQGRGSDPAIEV
UniProt Q13535: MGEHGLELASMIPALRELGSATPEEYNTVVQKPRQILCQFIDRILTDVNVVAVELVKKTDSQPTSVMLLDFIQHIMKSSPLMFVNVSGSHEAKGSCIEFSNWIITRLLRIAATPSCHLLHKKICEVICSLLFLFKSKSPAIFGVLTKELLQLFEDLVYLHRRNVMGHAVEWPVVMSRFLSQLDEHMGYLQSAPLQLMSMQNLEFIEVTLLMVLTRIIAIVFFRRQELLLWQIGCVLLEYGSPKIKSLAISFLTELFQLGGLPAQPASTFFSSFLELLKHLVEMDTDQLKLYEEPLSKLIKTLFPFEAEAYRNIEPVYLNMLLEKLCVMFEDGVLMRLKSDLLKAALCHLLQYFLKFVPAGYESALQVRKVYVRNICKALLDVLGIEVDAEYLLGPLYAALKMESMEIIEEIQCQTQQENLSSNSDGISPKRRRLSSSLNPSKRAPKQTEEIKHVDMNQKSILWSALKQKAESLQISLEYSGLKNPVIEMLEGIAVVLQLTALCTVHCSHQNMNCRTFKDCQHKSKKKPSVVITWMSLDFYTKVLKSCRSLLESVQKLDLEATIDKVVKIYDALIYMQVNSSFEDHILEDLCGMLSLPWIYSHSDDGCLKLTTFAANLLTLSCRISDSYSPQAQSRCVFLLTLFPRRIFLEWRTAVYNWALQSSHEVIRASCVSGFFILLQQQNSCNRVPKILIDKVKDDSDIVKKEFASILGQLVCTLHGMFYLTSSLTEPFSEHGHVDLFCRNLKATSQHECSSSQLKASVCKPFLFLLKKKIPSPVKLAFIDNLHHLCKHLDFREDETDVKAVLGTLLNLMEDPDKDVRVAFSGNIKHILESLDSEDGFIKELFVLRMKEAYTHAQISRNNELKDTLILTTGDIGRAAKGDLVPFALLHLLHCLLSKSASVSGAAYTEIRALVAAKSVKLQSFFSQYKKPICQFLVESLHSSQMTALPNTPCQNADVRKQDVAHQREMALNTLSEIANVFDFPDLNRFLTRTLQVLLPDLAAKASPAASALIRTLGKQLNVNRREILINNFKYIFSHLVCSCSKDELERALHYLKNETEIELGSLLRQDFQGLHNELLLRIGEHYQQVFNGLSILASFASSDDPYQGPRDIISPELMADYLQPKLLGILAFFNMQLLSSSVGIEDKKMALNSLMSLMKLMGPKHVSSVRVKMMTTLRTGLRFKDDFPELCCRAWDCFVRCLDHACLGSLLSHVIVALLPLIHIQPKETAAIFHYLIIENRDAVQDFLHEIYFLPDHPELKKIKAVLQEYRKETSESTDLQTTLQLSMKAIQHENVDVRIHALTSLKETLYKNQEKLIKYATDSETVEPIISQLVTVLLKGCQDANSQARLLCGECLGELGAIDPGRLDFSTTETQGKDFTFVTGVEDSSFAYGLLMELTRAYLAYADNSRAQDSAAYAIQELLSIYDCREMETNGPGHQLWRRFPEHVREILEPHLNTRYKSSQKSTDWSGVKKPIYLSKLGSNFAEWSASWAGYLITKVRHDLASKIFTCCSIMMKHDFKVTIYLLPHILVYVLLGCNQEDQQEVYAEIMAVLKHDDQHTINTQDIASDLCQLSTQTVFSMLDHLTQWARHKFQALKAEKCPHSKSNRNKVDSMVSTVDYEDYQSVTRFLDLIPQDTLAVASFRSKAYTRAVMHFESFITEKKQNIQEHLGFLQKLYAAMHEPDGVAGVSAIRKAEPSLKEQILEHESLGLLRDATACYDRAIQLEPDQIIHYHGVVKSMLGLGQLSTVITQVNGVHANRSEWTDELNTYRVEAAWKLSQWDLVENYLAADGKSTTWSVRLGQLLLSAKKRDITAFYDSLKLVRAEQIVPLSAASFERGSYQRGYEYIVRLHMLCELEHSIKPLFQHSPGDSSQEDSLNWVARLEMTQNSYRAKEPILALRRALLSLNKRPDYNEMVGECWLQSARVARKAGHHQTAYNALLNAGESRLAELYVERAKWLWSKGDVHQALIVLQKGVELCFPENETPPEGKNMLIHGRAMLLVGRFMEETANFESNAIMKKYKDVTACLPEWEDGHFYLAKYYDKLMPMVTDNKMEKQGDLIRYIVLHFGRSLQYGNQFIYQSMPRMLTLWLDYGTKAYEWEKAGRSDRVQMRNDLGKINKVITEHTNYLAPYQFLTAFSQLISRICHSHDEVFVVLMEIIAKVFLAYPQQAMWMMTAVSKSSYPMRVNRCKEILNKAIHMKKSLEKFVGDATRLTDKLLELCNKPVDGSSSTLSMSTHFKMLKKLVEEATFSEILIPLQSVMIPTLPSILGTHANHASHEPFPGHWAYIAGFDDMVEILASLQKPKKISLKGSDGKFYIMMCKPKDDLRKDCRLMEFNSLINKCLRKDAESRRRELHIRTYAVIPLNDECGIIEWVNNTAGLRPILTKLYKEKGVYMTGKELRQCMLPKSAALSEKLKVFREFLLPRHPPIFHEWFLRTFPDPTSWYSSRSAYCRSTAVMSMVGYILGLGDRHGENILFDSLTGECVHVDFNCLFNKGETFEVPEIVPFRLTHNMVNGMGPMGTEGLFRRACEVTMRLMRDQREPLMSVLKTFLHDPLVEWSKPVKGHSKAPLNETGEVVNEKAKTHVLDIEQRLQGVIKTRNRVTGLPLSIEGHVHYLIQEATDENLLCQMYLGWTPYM

The targets below were run with c1ccc([C@@H]2C[C@H]2NC2CCNCC2)cc1 (assay: log2 fold change, soluble protein after heating vs DMSO (PISA); higher = thermal stabilisation; K562 lysate, 10 uM; active = over 0.2 and 3.5 SD of the protein, either way, in both replicates (recomputed)).
How it was run: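 Following dounce homogenisation of K562 pellets in PBS pH 7.4 with 1 mM MgCl2, crude extract at 1 mg/mL protein was incubated for 30 min with 10 μM compound. Aliquots were then heated for 3 min over 48°C-58°C and pooled, NP-40 was added to 0.5% at 4°C, and soluble protein was recovered as the supernatant at 21,000xg for 90 min. Channel-sum-equalised TMTpro 16plex LC-MS/MS quantified this protein. Each value, from duplicates, is a log-two fold change in thermal stability relative to solvent controls.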
For ATRN (UniProt O75882), the log2 fold change was inactive: 0.034.
With ATRX (UniProt P46100) the log2 fold change was inactive: -0.036.
With ATAD3A (UniProt Q9NVI7) the log2 fold change was inactive: 0.209.
For ATP6V0A1 isoform 3 (UniProt Q93050), the log2 fold change was inactive: -0.074.
ATG12 (UniProt O94817) was tested, and the log2 fold change was inactive: -0.07.
In the case of ATXN2L (UniProt Q8WWM7), the log2 fold change is reported as inactive: 0.003.
In the case of ATG16L1 (UniProt Q676U5), the log2 fold change is reported as inactive: 0.025.
ASNA1 (UniProt O43681) was tested, and the log2 fold change was inactive: 0.061.
ATP1A1 (UniProt P05023) was tested, and the log2 fold change was inactive: -0.018.
In the case of ATRIP (UniProt Q8WXE1), the log2 fold change is reported as inactive: 0.093.
ATF7IP isoform 4 (UniProt Q6VMQ6) was tested, and the log2 fold change was inactive: 0.
In the case of ATP6V1B2 (UniProt P21281), the log2 fold change is reported as inactive: -0.022.
With AZI2 (UniProt Q9H6S1) the log2 fold change was inactive: 0.019.
In the case of ATXN2 (UniProt Q99700), the log2 fold change is reported as inactive: -0.021.
With ASH2L (UniProt Q9UBL3) the log2 fold change was inactive: 0.04.
ATXN2L isoform 3 (UniProt Q8WWM7) was tested, and the log2 fold change was inactive: 0.006.
In the case of ATL3 (UniProt Q6DD88), the log2 fold change is reported as inactive: 0.049.
ATP6V1D (UniProt Q9Y5K8) was tested, and the log2 fold change was inactive: 0.021.
B3GLCT (UniProt Q6Y288) was tested, and the log2 fold change was inactive: -0.008.
ATP6V1G1 (UniProt O75348) was tested, and the log2 fold change was inactive: -0.009.
B3GAT3 (UniProt O94766) was tested, and the log2 fold change was inactive: -0.01.
For ASF1B (UniProt Q9NVP2), the log2 fold change was inactive: 0.033.
For ATPAF1 (UniProt Q5TC12), the log2 fold change was inactive: 0.069.
ATR (UniProt Q13535) was tested, and the log2 fold change was inactive: -0.095.
